Measurements published in patent publication US20210087263A1.
Residue numbers refer to the chain shown, from its start. Results are given in words; binding and its absence hold for the method and conditions named. Some results given as binding are weak or reduced against the parent protein; the word gives no strength.

T1: recombinant cynomolgus monkey CXCL13 (cynomolgus monkey)
T1 sequence: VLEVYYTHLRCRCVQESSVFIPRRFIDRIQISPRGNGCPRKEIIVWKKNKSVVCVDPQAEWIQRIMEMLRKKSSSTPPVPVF

B1: 3D2 (antibody, mouse IgG1, V domains shown)
VH: EVQLQESGPGILQPSQTLNLTCSFSGFSLSTFGMGVGWIRQPSGKGLEWLAHIWWDDDRRYNPALKSRLTISKETSKNQVFLKIANVDTADTATYYCTRIAGYYGSRDWFAYWGQGTTVTVSS
VL: DIVLTQSPASLAVSLGQRATISCRASESVDNSGISFMHWYQQKPGQPPKLLIFRASDLESGIPARFSGSGSRTDFTLTVNPVETDDVATYFCQQSNKDPWTFGGGTKLEIK
B2: MAb 1476 (antibody, V domains shown)
VH: B1 VH
VL: B1 VL
B3: MAb 5261 (antibody, V domains shown)
VH: QVQLQESGPGLVKPSETLSLTCTVSGFSLSTFGMGVGWIRQPPGKGLEWIAHIWWDDDRRYNPALKSRVTISKDTSKNQFSLKLSSVTAADTAVYYCARIAGYYGSRDWFAYWGQGTTVTVSS
VL: DIQMTQSPSSLSASVGDRVTITCRASESVDNMGISFMHWYQQKPGKAPKLLIFRASDLESGVPSRFSGSGSGTDFTLTISSLQPEDFATYYCQQSNKDPWTFGQGTKLEIK
B4: MAb 5378 (antibody, V domains shown)
VH: B3 VH
VL: B3 VL
B5: MAb 5080 (antibody, V domains shown)
VH: B3 VH
VL: B3 VL with M32S, R65G, G72R

What follows are binders tested against T1, recombinant cynomolgus monkey CXCL13 (cynomolgus monkey) (assay: specificity ELISA, chemokine coated on plate).

binding	Binder
binds	B1

What follows are binders tested against T1, recombinant cynomolgus monkey CXCL13 (cynomolgus monkey) (assay: specificity ELISA, chemokine coated at 100 nM).

binding	Binder
binds	B1
binds	B2
binds	B3
binds	B4
binds	B5
